Assay type in all cases: cell-based
The subject of experiment [1] is stomach carcinoma MKN45 cells. In words: In vitro cell growth inhibition, methylene blue dye assay, MKN45 cells. Conditions: Homo sapiens, MKN-45, 72 h, read-out: IC50 on the proliferation of cells, MKN45. How it is done:
(§1) The synthesized compounds 5 to 17 were evaluated for antiproliferative activities against four carcinoma cells, oral epidermoid carcinoma KB cells, non-small-cell lung carcinoma H460 cells, colorectal carcinoma HT29 cells and stomach carcinoma MKN45 cells, as well as the MDR-positive cell lines KB-VIN10, that overexpressed P-gp 170/MDR (Table 1). The controls were compounds 1 and 3.
(§2) Human oral epidermoid carcinoma KB cells, non-small-cell lung carcinoma H460 cells, colorectal carcinoma HT29 cells and stomach carcinoma MKN45 cells were maintained in RMPI-1640 medium supplied with 5% fetal bovine serum (FBS). […] Cells in logarithmic phase were cultured at a density of 5000 cells/mL/well in a 24-well plate. KB-VIN10 cells were cultured in drug-free medium for 3 days prior to use. The cells were exposed to various concentrations of the test drugs for 72 hours. The methylene blue dye assay was used to evaluate the effect of the test compounds on cell growth (Finlay et al., 1984).

In experiment [2] the test system is non-small-cell lung carcinoma H460 cells. Briefly: In vitro cell growth inhibition, methylene blue dye assay, H460 cells. Conditions: Homo sapiens, NCI-H460, 72 h, read-out: IC50 on the proliferation of cells, H460. Here is the method: as §1, §2
The test system of experiment [3] is oral epidermoid carcinoma KB cells. In words: In vitro cell growth inhibition, methylene blue dye assay, KB cells. Conditions: Homo sapiens, 72 h, read-out: IC50 on the proliferation of cells, KB. How it is done:
as §1, §2

The test system of experiment [4] is colorectal carcinoma HT29 cells. In words: In vitro cell growth inhibition, methylene blue dye assay, HT29 cells. Conditions: Homo sapiens, HT-29, 72 h, read-out: IC50 on the proliferation of cells, HT29. How it is done:
as §1, §2

As for `COc1cc2c(c(OC)c1OC)-c1ccc(OC)c(=O)cc1[C@@H](NC(C)=O)CC2` [Compound 3, Colchicine, reference compound], the IC50 in experiment [1] turned out to be 12.4 ± 2 nM; in experiment [2] it was 20.1 ± 3 nM; in experiment [3], 12 ± 1.2 nM; in experiment [4], 13.2 ± 2.3 nM.

These data come from patent publication US20110275643A1, “AROYLQUINOLINE COMPOUNDS” (NATIONAL HEALTH RESEARCH INSTITUTES, priority 2010, published 2011).
